No constants are given. Whether binding was seen depends on the method and setting. Binding seen in cells or lysates may run through a third protein. Some binding calls cover weakened binding; strength is not graded here.

Protein sequences, listed by entry. Tags and fused reporters are not part of them.
UniProt Q8BMJ2: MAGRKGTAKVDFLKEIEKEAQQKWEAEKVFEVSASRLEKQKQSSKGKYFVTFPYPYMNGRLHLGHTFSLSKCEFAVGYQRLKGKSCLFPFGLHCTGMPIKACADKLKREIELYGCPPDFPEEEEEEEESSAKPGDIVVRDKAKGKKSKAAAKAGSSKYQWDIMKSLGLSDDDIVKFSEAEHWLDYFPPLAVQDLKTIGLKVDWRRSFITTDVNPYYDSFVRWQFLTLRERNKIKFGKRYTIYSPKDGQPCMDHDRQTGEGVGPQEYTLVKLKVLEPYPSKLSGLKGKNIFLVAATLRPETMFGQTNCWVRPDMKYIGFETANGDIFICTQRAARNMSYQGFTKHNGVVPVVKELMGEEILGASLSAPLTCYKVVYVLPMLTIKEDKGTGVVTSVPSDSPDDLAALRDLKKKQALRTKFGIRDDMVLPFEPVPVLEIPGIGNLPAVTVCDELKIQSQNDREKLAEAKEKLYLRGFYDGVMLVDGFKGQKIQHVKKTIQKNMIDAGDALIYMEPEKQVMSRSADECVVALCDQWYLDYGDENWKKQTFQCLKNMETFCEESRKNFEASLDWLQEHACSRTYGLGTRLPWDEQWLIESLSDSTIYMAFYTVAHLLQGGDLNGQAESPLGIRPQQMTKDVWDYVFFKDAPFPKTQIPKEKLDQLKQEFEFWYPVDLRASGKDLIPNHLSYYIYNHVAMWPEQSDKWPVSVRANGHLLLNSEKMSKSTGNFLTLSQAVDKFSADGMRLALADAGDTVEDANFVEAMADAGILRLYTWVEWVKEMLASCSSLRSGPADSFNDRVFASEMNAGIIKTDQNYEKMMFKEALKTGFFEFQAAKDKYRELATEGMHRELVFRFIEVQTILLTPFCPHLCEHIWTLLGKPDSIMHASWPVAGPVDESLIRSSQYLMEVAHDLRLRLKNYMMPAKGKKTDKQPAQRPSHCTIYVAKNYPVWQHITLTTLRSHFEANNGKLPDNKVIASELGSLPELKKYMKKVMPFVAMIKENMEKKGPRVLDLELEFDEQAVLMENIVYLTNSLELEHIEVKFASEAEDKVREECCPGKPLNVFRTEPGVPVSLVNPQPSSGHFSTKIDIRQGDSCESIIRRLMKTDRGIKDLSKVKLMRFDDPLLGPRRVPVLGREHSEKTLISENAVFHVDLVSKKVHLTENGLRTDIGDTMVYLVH
UniProt Q9P2J5: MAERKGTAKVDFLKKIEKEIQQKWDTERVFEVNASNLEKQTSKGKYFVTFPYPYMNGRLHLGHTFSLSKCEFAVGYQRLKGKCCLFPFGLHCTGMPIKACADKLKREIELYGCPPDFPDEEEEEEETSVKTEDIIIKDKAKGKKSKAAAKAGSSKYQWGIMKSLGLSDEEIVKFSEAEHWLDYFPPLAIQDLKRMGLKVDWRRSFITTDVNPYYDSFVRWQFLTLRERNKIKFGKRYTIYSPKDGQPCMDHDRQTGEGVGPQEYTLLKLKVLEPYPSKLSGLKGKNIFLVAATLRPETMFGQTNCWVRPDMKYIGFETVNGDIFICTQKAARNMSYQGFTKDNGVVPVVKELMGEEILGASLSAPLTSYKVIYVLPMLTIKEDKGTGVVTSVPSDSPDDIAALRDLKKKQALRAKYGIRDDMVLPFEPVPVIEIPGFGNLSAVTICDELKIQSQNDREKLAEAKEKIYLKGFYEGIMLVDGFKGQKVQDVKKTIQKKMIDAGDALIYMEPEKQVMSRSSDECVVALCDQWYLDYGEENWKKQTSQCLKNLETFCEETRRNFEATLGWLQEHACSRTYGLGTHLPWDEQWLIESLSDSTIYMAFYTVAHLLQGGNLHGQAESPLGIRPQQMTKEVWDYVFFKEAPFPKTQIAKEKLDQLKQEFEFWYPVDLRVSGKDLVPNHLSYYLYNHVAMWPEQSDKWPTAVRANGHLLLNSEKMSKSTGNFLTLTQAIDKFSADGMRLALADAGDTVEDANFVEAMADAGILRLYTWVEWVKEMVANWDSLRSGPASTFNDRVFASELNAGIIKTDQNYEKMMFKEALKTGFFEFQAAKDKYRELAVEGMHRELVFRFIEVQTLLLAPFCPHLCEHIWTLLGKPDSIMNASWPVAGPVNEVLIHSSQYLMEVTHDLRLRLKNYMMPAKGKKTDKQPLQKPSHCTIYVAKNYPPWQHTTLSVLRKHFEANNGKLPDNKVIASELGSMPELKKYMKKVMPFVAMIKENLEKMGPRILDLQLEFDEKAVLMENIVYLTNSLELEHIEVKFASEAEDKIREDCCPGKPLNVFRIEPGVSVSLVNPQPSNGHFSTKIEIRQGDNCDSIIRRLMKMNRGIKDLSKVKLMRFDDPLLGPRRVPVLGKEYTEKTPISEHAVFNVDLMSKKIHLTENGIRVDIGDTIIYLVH

Our source for the binding values is PMC9130917.

The target of test [1] is leucyl-tRNA synthetase (LARS), endogenous in HL-1 cells (mouse (endogenous in HL-1)) (UniProt Q8BMJ2). Nature of the test: co-IP; coimmunoprecipitation of endogenous TBX5 and LARS in the mouse cardiac muscle cell line HL-1.
Test [2] concerns the target leucyl-tRNA synthetase (LARS), exogenous, for coimmunoprecipitation (UniProt Q9P2J5). Nature of the test: co-IP; coimmunoprecipitation of exogenous TBX5 and LARS in cultured cells (HL-1 as the text reads).

B1: T-box transcription factor 5 (TBX5), endogenous in HL-1 cells (protein, UniProt P70326 1-518)
chain: MADTDEGFGLARTPLEPDSKDRSCDSKPESALGAPSKSPSSPQAAFTQQGMEGIKVFLHERELWLKFHEVGTEMIITKAGRRMFPSYKVKVTGLNPKTKYILLMDIVPADDHRYKFADNKWSVTGKAEPAMPGRLYVHPDSPATGAHWMRQLVSFQKLKLTNNHLDPFGHIILNSMHKYQPRLHIVKADENNGFGSKNTAFCTHVFPETAFIAVTSYQNHKITQLKIENNPFAKGFRGSDDLELHRMSRMQSKEYPVVPRSTVRHKVTSNHSPFSSETRALSTSSNLGSQYQCENGVSGPSQDLLPPPNPYPLAQEHSQIYHCTKRKDEECSSTEHPYKKPYMETSPSEEDTFYRSGYPQQQGLSTSYRTESAQRQACMYASSAPPSEPVPSLEDISCNTWPSMPSYSSCTVTTVQPMDRLPYQHFSAHFTSGPLVPRLAGMANHGSPQLGEGMFQHQTSVAHQPVVRQCGPQTGLQSPGGLQPPEFLYTHGVPRTLSPHQYHSVHGVGMVPEWSENS
Consider B1, for which the binding entry in test [1] was “binds”.

B2: T-box transcription factor 5 (TBX5), exogenous, for coimmunoprecipitation with LARS (protein, UniProt Q99593 1-518)
chain: MADADEGFGLAHTPLEPDAKDLPCDSKPESALGAPSKSPSSPQAAFTQQGMEGIKVFLHERELWLKFHEVGTEMIITKAGRRMFPSYKVKVTGLNPKTKYILLMDIVPADDHRYKFADNKWSVTGKAEPAMPGRLYVHPDSPATGAHWMRQLVSFQKLKLTNNHLDPFGHIILNSMHKYQPRLHIVKADENNGFGSKNTAFCTHVFPETAFIAVTSYQNHKITQLKIENNPFAKGFRGSDDMELHRMSRMQSKEYPVVPRSTVRQKVASNHSPFSSESRALSTSSNLGSQYQCENGVSGPSQDLLPPPNPYPLPQEHSQIYHCTKRKEEECSTTDHPYKKPYMETSPSEEDSFYRSSYPQQQGLGASYRTESAQRQACMYASSAPPSEPVPSLEDISCNTWPSMPSYSSCTVTTVQPMDRLPYQHFSAHFTSGPLVPRLAGMANHGSPQLGEGMFQHQTSVAHQPVVRQCGPQTGLQSPGTLQPPEFLYSHGVPRTLSPHQYHSVHGVGMVPEWSDNS
Regarding B2, the binding result in test [2] is “binds”.
